Measurements as given in the supplement of paper PMC6078165.
± gives the standard deviation of the averaged measurements. Values are relative to the signal before dosing, not to a vehicle control; the signal also falls without drug.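 Fibroblast labels denote human fibroblasts, mainly primary ones from uterus (C12385, HUF), lung (H6013), bone (Hs27A), adrenal (HADF) and skin (WS1), plus mammary HMF and breast cancer-associated Hs343T. Cancer cells are basal-like or mesenchymal-like triple-negative breast cancer lines. A hit is a response shift exceeding 3x replicate standard deviation. The tissue of the other fibroblasts is not given here.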

Test system: MDAMB468
Assay: relative JC-1 red fluorescence (viability) vs pre-drug, coculture with fibroblast (fraction); higher = more viable cancer cells
Method: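 JC-1 labelled TNBC cells cocultured 1:1 (1,500 cells each) with CellTrace Violet stained primary or stromal fibroblasts in 384-well plates in FluoroBrite medium, treated with one of 42 anticancer drugs at 0.1, 1, 10 or 100 uM. JC-1 red fluorescence (mitochondrial integrity in cancer cells only) was read by plate reader every 8 h for 72 h. Values are normalised to each well's pre-drug value. The stock of one drug was tenfold lower, so its dose labels may be too high.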

CC[C@]1(O)C[C@@H]2CN(CCc3c([nH]c4ccccc34)[C@@](C(=O)OC)(c3cc4c(cc3OC)N(C)[C@H]3[C@@](O)(C(=O)OC)[C@H](OC(C)=O)[C@]5(CC)C=CCN6CC[C@]43[C@@H]65)C2)C1 [Vinblastine]
relative JC-1 red fluorescence
Settings | 8 h | 16 h | 24 h | 32 h | 40 h | 48 h | 56 h | 64 h | 72 h
10 µM, coculture fibroblast: C12385 | 0.8399 ± 0.0043 | 0.811 ± 0.013 | 0.804 ± 0.013 | 0.771 ± 0.016 | 0.74 ± 0.016 | 0.743 ± 0.011 | 0.7077 ± 0.0043 | 0.673 ± 0.0056 | 0.6645 ± 0.00084
10 µM, coculture fibroblast: H6013 | 0.8116 ± 0.0075 | 0.8622 ± 0.0073 | 0.831 ± 0.011 | 0.841 ± 0.017 | 0.816 ± 0.0089 | 0.83358 ± 0.00061 | 0.8051 ± 0.0027 | 0.793 ± 0.011 | 0.76 ± 0.024
10 µM, coculture fibroblast: H6019 | 0.854 ± 0.022 | 0.841 ± 0.009 | 0.833 ± 0.027 | 0.804 ± 0.033 | 0.783 ± 0.045 | 0.793 ± 0.042 | 0.768 ± 0.054 | 0.749 ± 0.065 | 0.75 ± 0.068
10 µM, coculture fibroblast: H6076 | 0.88 ± 0.027 | 0.87 ± 0.068 | 0.96 ± 0.039 | 0.971 ± 0.037 | 0.91 ± 0.048 | 0.903 ± 0.048 | 0.859 ± 0.056 | 0.839 ± 0.055 | 0.874 ± 0.035
10 µM, coculture fibroblast: H6231 | 0.77449 ± 5e-05 | 0.919 ± 0.026 | 0.872 ± 0.036 | 0.857 ± 0.03 | 0.818 ± 0.031 | 0.795 ± 0.034 | 0.74 ± 0.029 | 0.727 ± 0.035 | 0.711 ± 0.023
10 µM, coculture fibroblast: HADF | 0.8616 ± 0.0019 | 0.8807 ± 0.0075 | 0.838 ± 0.019 | 0.865 ± 0.01 | 0.804 ± 0.02 | 0.805 ± 0.022 | 0.778 ± 0.028 | 0.769 ± 0.021 | 0.772 ± 0.025
10 µM, coculture fibroblast: HCFa | 0.845 ± 0.016 | 0.843 ± 0.015 | 0.7985 ± 0.0027 | 0.793 ± 0.018 | 0.744 ± 0.03 | 0.745 ± 0.024 | 0.706 ± 0.018 | 0.682 ± 0.026 | 0.659 ± 0.024
10 µM, coculture fibroblast: HCPF | 0.86 ± 0.024 | 0.884 ± 0.16 | 0.926 ± 0.062 | 0.867 ± 0.14 | 0.818 ± 0.16 | 0.809 ± 0.14 | 0.8526 ± 0.0068 | 0.835 ± 0.028 | 0.742 ± 0.071
10 µM, coculture fibroblast: HHSteC | 0.867 ± 0.0048 | 0.881 ± 0.018 | 0.858 ± 0.041 | 0.849 ± 0.037 | 0.817 ± 0.046 | 0.834 ± 0.057 | 0.775 ± 0.057 | 0.753 ± 0.055 | 0.723 ± 0.061
10 µM, coculture fibroblast: HMF | 0.805 ± 0.0097 | 0.9814 ± 0.0086 | 0.9525 ± 0.0037 | 0.9441 ± 0.0047 | 0.9031 ± 0.0078 | 0.8897 ± 0.0055 | 0.8476 ± 0.0037 | 0.8324 ± 0.0041 | 0.8 ± 0.0089
10 µM, coculture fibroblast: HPFa | 0.874 ± 0.039 | 0.883 ± 0.032 | 0.863 ± 0.037 | 0.827 ± 0.021 | 0.816 ± 0.021 | 0.836 ± 0.017 | 0.79 ± 0.017 | 0.799 ± 0.022 | 0.746 ± 0.023
10 µM, coculture fibroblast: HUF | 0.914 ± 0.0067 | 0.868 ± 0.02 | 0.854 ± 0.0099 | 0.8004 ± 0.0051 | 0.775 ± 0.016 | 0.755 ± 0.011 | 0.7294 ± 0.0065 | 0.7095 ± 0.0029 | 0.691 ± 0.0094
10 µM, coculture fibroblast: Hs5 | 0.94143 ± 0.00085 | 0.969 ± 0.014 | 0.9422 ± 0.0047 | 0.9317 ± 0.003 | 0.869 ± 0.01 | 0.846 ± 0.011 | 0.795 ± 0.014 | 0.766 ± 0.012 | 0.7881 ± 0.0016
10 µM, coculture fibroblast: Hs27A | 0.8288 ± 0.0078 | 0.844 ± 0.036 | 0.784 ± 0.025 | 0.812 ± 0.039 | 0.763 ± 0.043 | 0.77 ± 0.032 | 0.744 ± 0.028 | 0.72 ± 0.027 | 0.721 ± 0.047
10 µM, coculture fibroblast: Hs343T | 0.8537 ± 0.0054 | 0.9856 ± 0.0076 | 0.971 ± 0.014 | 0.964 ± 0.017 | 0.916 ± 0.029 | 0.899 ± 0.019 | 0.866 ± 0.017 | 0.845 ± 0.031 | 0.83 ± 0.036
10 µM, coculture fibroblast: WS1 | 0.8465 ± 0.0079 | 0.809 ± 0.02 | 0.778 ± 0.043 | 0.736 ± 0.052 | 0.691 ± 0.045 | 0.663 ± 0.043 | 0.629 ± 0.046 | 0.59 ± 0.043 | 0.577 ± 0.047
100 µM, coculture fibroblast: C12385 | 0.869 ± 0.027 | 0.732 ± 0.048 | 0.428 ± 0.092 | 0.221 ± 0.052 | 0.156 ± 0.039 | 0.133 ± 0.042 | 0.0952 ± 0.039 | 0.07 ± 0.034 | 0.0528 ± 0.034
100 µM, coculture fibroblast: H6013 | 0.82 ± 0.024 | 0.722 ± 0.046 | 0.476 ± 0.025 | 0.323 ± 0.0047 | 0.2566 ± 0.0017 | 0.228 ± 0.0051 | 0.1814 ± 0.0011 | 0.153 ± 0.003 | 0.103 ± 0.0025
100 µM, coculture fibroblast: H6019 | 0.913 ± 0.078 | 0.753 ± 0.22 | 0.472 ± 0.13 | 0.32 ± 0.086 | 0.251 ± 0.063 | 0.222 ± 0.058 | 0.186 ± 0.051 | 0.161 ± 0.052 | 0.148 ± 0.053
100 µM, coculture fibroblast: H6076 | 0.878 ± 0.013 | 0.8499 ± 0.0061 | 0.612 ± 0.091 | 0.465 ± 0.097 | 0.318 ± 0.07 | 0.269 ± 0.072 | 0.216 ± 0.071 | 0.179 ± 0.063 | 0.212 ± 0.066
100 µM, coculture fibroblast: H6231 | 0.803 ± 0.044 | 0.915 ± 0.014 | 0.839 ± 0.028 | 0.816 ± 0.034 | 0.769 ± 0.057 | 0.718 ± 0.11 | 0.607 ± 0.23 | 0.552 ± 0.29 | 0.525 ± 0.33
100 µM, coculture fibroblast: HADF | 0.8635 ± 0.0053 | 0.8114 ± 0.0063 | 0.529 ± 0.0062 | 0.336 ± 0.016 | 0.259 ± 0.0069 | 0.226 ± 0.0085 | 0.172 ± 0.0052 | 0.147 ± 0.0045 | 0.097 ± 0.0031
100 µM, coculture fibroblast: HCFa | 0.851 ± 0.011 | 0.898 ± 0.015 | 0.6716 ± 0.0041 | 0.479 ± 0.013 | 0.373 ± 0.028 | 0.329 ± 0.022 | 0.272 ± 0.019 | 0.233 ± 0.019 | 0.18 ± 0.021
100 µM, coculture fibroblast: HCPF | 0.913 ± 0.038 | 0.828 ± 0.11 | 0.943 ± 0.055 | 0.93 ± 0.087 | 0.949 ± 0.041 | 0.945 ± 0.075 | 0.907 ± 0.086 | 0.871 ± 0.068 | 0.855 ± 0.046
100 µM, coculture fibroblast: HHSteC | 0.8804 ± 0.0073 | 0.741 ± 0.069 | 0.479 ± 0.072 | 0.306 ± 0.083 | 0.25 ± 0.079 | 0.236 ± 0.075 | 0.17 ± 0.067 | 0.143 ± 0.062 | 0.0959 ± 0.053
100 µM, coculture fibroblast: HMF | 0.945 ± 0.025 | 0.777 ± 0.092 | 0.784 ± 0.057 | 0.811 ± 0.12 | 0.933 ± 0.068 | 0.84 ± 0.18 | 0.947 ± 0.057 | 0.919 ± 0.062 | 0.908 ± 0.053
100 µM, coculture fibroblast: HPFa | 0.8874 ± 0.0081 | 0.9472 ± 0.0067 | 0.714 ± 0.024 | 0.453 ± 0.012 | 0.37 ± 0.0047 | 0.338 ± 0.014 | 0.268 ± 0.011 | 0.244 ± 0.015 | 0.175 ± 0.013
100 µM, coculture fibroblast: HUF | 0.843 ± 0.21 | 0.858 ± 0.062 | 0.609 ± 0.029 | 0.368 ± 0.031 | 0.2552 ± 0.0014 | 0.217 ± 0.0073 | 0.164 ± 0.0073 | 0.144 ± 0.0056 | 0.123 ± 0.0082
100 µM, coculture fibroblast: Hs5 | 0.93 ± 0.029 | 0.871 ± 0.054 | 0.663 ± 0.067 | 0.472 ± 0.033 | 0.322 ± 0.016 | 0.263 ± 0.018 | 0.222 ± 0.021 | 0.183 ± 0.019 | 0.194 ± 0.014
100 µM, coculture fibroblast: Hs27A | 0.814 ± 0.031 | 0.886 ± 0.061 | 0.6 ± 0.049 | 0.354 ± 0.027 | 0.2565 ± 0.00072 | 0.223 ± 0.0048 | 0.1841 ± 0.00065 | 0.156 ± 0.0024 | 0.106 ± 0.0032
100 µM, coculture fibroblast: Hs343T | 0.869 ± 0.025 | 0.934 ± 0.089 | 0.734 ± 0.3 | 0.638 ± 0.4 | 0.55 ± 0.46 | 0.529 ± 0.48 | 0.473 ± 0.47 | 0.446 ± 0.46 | 0.438 ± 0.47
100 µM, coculture fibroblast: WS1 | 0.818 ± 0.067 | 0.624 ± 0.15 | 0.36 ± 0.059 | 0.242 ± 0.031 | 0.173 ± 0.014 | 0.138 ± 0.015 | 0.102 ± 0.015 | 0.0747 ± 0.013 | 0.063 ± 0.014
